# Screen size: about 330,000 compounds; about 7,700 (2.3%) were called active. The inconclusive results got no clear call from the source; some entries with a clear call stand among them for comparison. The call rests on the fitted dose curve; in most records, active means well fitted inhibition curve with a large enough effect; inconclusive means small, poorly fitted or top-dose-only effect, or effect the other way; inactive means flat fitted curve, though single readings scatter. Potencies beside an inconclusive call are fits to weak or partial responses and may not hold up.
# Assay: qHTS screen for small molecules that inhibit ELG1-dependent DNA repair in human embryonic kidney (HEK293T) cells expressing luciferase-tagged ELG1; further: nearly all actives have a fitted effect of over 55% in size
# Conditions: HEK293T ELG1-luciferase reporter, luminescence, 16 h, DNA damage induced by 5-fluorouridine; activity change, negative = inhibition: at 46.1 µM (top of the series)
# Method in brief: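 Step one: seed 2,000 cells per well. Step two: pin-transfer compound or DMSO alongside 5-fluorouridine. Step three: incubate 16 hr, 37 °C, 5% CO2. Step four: add ONE-Glo, wait 30 min, read luminescence.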
# On the % scale 0 is the no-effect control and ±100 the full control effect; potency means the concentration at half of the fitted maximal effect.
SMILES,Potency,"activity change, negative = inhibition"
CCOc1cccc(N)c1,"inconclusive: 20.6 µM [activator, partial curve, poor fit]",
CN(C)c1cc2c(cc1NS(=O)(=O)c1ccccc1)n(C)c(=O)n2C,"inconclusive: 20.6 µM [activator, single point]",
CCS(=O)(=O)C1=NN2C(=N)/C(=C\c3ccc(OCCOc4cccc(OC)c4)c(OC)c3)C(=O)N=C2S1,,inactive: 3.48%
Cc1ccc(SCC(=O)NC2CCCCCC2)cc1,"inconclusive: 29.1 µM [activator, single point]",
Cc1ccc(-c2nn(C)c(=O)c3ccccc23)cc1S(=O)(=O)N1CCOCC1,"inconclusive: 8.2 µM [activator, partial curve]",
Cc1c(C(=O)N(Cc2nnc(-c3ccccc3Cl)o2)C2CC2)oc2ccccc12,,inactive: -4.18%
O=c1c(-c2nnc(SCc3ccc(Cl)cc3Cl)o2)cccn1Cc1ccccc1,,inactive: -19.1%
COc1ccc(N=Cc2c(O)[nH]c3ccccc23)cc1,"inconclusive: 8.2 µM [activator, partial curve]",
COc1ccc(CCNC(=O)c2cc(S(=O)(=O)N(C)c3ccccc3)ccc2Cl)cc1,"inconclusive: 29.1 µM [inhibitor, single point]",
C[C@H]1CN([C@@H](C)CO)C(=O)c2cccc(NC(=O)c3cnccn3)c2O[C@@H]1CN(C)C(=O)Nc1ccc2c(c1)OCO2,"inconclusive: 25.9 µM [activator, partial curve, poor fit]",
COc1cc(NC(=S)NC(=O)c2ccccc2C)ccc1NC(=O)c1cccs1,active: 13 µM,
O=C(Nc1ccnn1C1CCN(C/C=C/c2ccccc2)CC1)c1cccc(F)c1,,inactive: -4.49%
Cc1ccc(C)c(OCC(=O)O/N=C(\N)c2cccnc2)c1,"inconclusive: 18.3 µM [activator, partial curve]",
CC(=O)c1ccccc1NC(=O)CSc1nnc2ccccn12,"inconclusive: 14.6 µM [activator, partial curve]",
Cc1cccc(/C=N/NC(=O)c2ccc(F)cc2)n1,"inconclusive: 11.6 µM [activator, partial curve, poor fit]",
Cc1ccsc1C(=O)OCc1nc2ccsc2c(=O)[nH]1,"inconclusive: 7.3 µM [activator, single point]",
COc1ccc(OC)c(N(CC(=O)Nc2ccccc2C(=O)NCc2ccco2)S(C)(=O)=O)c1,"inconclusive: 8.2 µM [inhibitor, partial curve, poor fit]",
COc1ccccc1OCC(=O)NNC(=S)NC(=O)c1ccco1,,inactive: -6%
O=C(CNc1ccc(Br)cc1)Nc1cccc(S(=O)(=O)N2CCCC2)c1,,inactive: -14.3%
Cc1ccc(C(=O)COc2ncnc3cc(Cl)ccc23)cc1,"inconclusive: 8.2 µM [activator, single point]",
OC(COc1ccc2c(c1)OCO2)CN1CCN(c2ccccc2)CC1 (configuration not stated),"inconclusive: 32.6 µM [inhibitor, single point]",
COc1ccc(C(=O)c2ccc(CC#N)s2)cc1,"inconclusive: 9.2 µM [activator, partial curve]",
O=C(c1cccs1)N1CCOCC1,,inactive: -3.31%
N#C/C(=N\Nc1ccc(F)cc1)C(=N)N1CCCCC1,"inconclusive: 1.84 µM [activator, full curve]",

SMILES,Potency,"activity change, negative = inhibition"
Cc1cc(OCC(=O)N(C)C2CCCCC2)cc(C)c1Cl,,inactive: 4.54%
COc1ccc(/C=N/NC(=O)c2cccc(NC(=O)c3ccc(Cl)cc3)c2)c(OC)c1,"inconclusive: 29.1 µM [inhibitor, single point]",
O=C(C[n+]1ccc(C(=O)N/N=C/c2ccc(OCc3ccccc3)cc2)cc1)c1ccccc1,"inconclusive: 18.4 µM [activator, partial curve]",
CSC1=C(C#N)C2(CCCC2)C(C#N)=C(N)N1,"inconclusive: 23.1 µM [inhibitor, single point]",
COc1ccc(-n2c(SCC(=O)Nc3ccccc3C)nc(O)c(Cc3ccccc3)c2=O)cc1,"inconclusive: 29.1 µM [activator, partial curve, poor fit]",
COC(=O)C1=C(C)NC(=O)NC1c1ccc(-c2ccc(Cl)cc2)o1 (configuration not stated),"inconclusive: 16.4 µM [inhibitor, single point]",
CCOc1ccc2c(C)c(Cl)c(=O)oc2c1,"inconclusive: 18.4 µM [activator, single point]",
COc1ccc(C(=O)O)cc1NC(=S)NC(=O)CSc1ccc(Cl)cc1,,inactive: -1.55%
Fc1cccc(C2CCCCN2Cc2nc(C3CC3)no2)c1 (configuration not stated),,inactive: 0.275%
O=C(Cn1ncn2cccc2c1=O)N1CCCCC1,,inactive: -0.929%
Cc1nc2c(-c3ccccc3)c(C)[nH]n2c(=O)c1Cc1ccccc1,"inconclusive: 13 µM [inhibitor, partial curve]",
Cn1nc(CC(=O)N2CCN(c3ccccc3)CC2)c2ccccc2c1=O,"inconclusive: 18.4 µM [inhibitor, single point]",
CCCNC(=O)C(CC)NC(=O)c1cccc([N+](=O)[O-])c1 (configuration not stated),"inconclusive: 5.8 µM [activator, partial curve, poor fit]",
CCCSc1nnc(Sc2nnnn2-c2ccccc2)s1,,inactive: -0.0448%
CC(C)c1ccc(NC(=O)CN2C(=O)c3ccccc3S2(=O)=O)cc1,"inconclusive: 29.1 µM [activator, partial curve, poor fit]",
COc1ccc2c(COC(=O)CCS(=O)(=O)c3ccc(C)cc3)cc(=O)oc2c1,,inactive: 7.08%
Cc1ccc(-n2nc(C)c3onc(C)c3c2=O)cc1,"inconclusive: 0.146 µM [inhibitor, full curve, poor fit]",
Cc1cc(C)c(OCC(=O)NCC(C)(C)N2CCOCC2)c(C)c1,,inactive: 18.6%
COC(=O)c1ccc(CSc2nc3sc4c(c3c(=O)n2C)CCCC4)o1,,inactive: 6.97%
CCCCCOc1ccc(C2NC(=O)NC2=O)cc1 (configuration not stated),"inconclusive: 20.6 µM [activator, single point]",
O=C(N/N=C/c1ccco1)c1ccc(NC(=O)c2ccccc2Cl)cc1,,inactive: 3.99%
CCN(CC)CCCN(Cc1cc2cc3c(cc2[nH]c1=O)OCCO3)C(=O)Nc1ccc(F)cc1,"inconclusive: 0.517 µM [activator, partial curve]",
O=C(NCc1cccnc1)Nc1ccc(Br)cc1,"inconclusive: 16.4 µM [activator, single point]",
O=C(NNC(=O)c1ccccc1OCc1ccc(F)cc1)c1ccncc1,,inactive: 0.982%

SMILES,Potency,"activity change, negative = inhibition"
CC(C)(C)OC(=O)N1CCN(c2ccc([N+](=O)[O-])cc2)CC1,"inconclusive: 20.6 µM [inhibitor, partial curve]",
O=C(COC(=O)c1ccc(Cl)nc1)Nc1nnc(-c2ccccc2)o1,,inactive: 7.35%
COc1ccc(-c2nnc3n2-c2ccccc2SC3)cc1OC,,inactive: -20%
O=C(N/N=C/c1ccc(O)cc1)c1cccc(N/N=C/c2ccc(O)cc2)c1,"inconclusive: 5.17 µM [activator, full curve]",
COc1ccc(N2CCN(S(=O)(=O)c3ccc4c(c3)CC(C)N4C(=O)C3CC3)CC2)cc1 (configuration not stated),"inconclusive: 5.17 µM [inhibitor, partial curve, poor fit]",
CCN1CCN(c2ccc(NC(=O)c3cccc(OCc4ccccc4)c3)cc2)CC1,,inactive: 5.97%
COc1cccc(C2NC(=O)NC(C)=C2C(=O)Nc2ccc(C)cc2)c1OC (configuration not stated),"inconclusive: 23.1 µM [inhibitor, partial curve, poor fit]",
Cc1ccc(S(=O)(=O)CCC(=O)OCC(=O)NCc2ccccc2)cc1,"inconclusive: 29.1 µM [activator, single point]",
CCOC(=O)c1c(C)nc2c(c1C)/C(=N/O)CC(C)(C)C2,active: 18.4 µM,
CCOC(=O)c1cc(C#N)c(N2CCN(C)CC2)nc1-c1ccccc1,"inconclusive: 16.4 µM [inhibitor, partial curve]",
CC(=O)c1cccc(S(=O)(=O)N2CCC(C(=O)Oc3ccc(-c4nnco4)cc3)CC2)c1,,inactive: 8.99%
Cn1nnnc1SCC(=O)NCc1cccc(C(=O)O)c1,"inconclusive: 25.9 µM [activator, partial curve, poor fit]",
COCCN(CCOC)C(=S)Nc1ccccc1,,inactive: 18.5%
COc1ccccc1C(=O)Nc1ncc2c(n1)CC(c1ccco1)CC2=O (configuration not stated),"inconclusive: 32.6 µM [inhibitor, partial curve, poor fit]",
CC1(c2ccc3ccccc3c2)NC(=O)N(CC(=O)Nc2cccc(S(=O)(=O)N3CCOCC3)c2)C1=O (configuration not stated),"inconclusive: 20.6 µM [inhibitor, single point]",
COc1cc(CC(=O)OCC(=O)NCCc2ccc(S(N)(=O)=O)cc2)cc(OC)c1OC,,inactive: 13.8%
O=C(CN1c2ccccc2S(=O)(=O)c2ccccc21)NCc1ccc(F)cc1,,inactive: -1.53%
c1ccc(-c2nnsc2Sc2ccccn2)cc1,"inconclusive: 23.1 µM [activator, single point]",
CC1=C(C(=O)OCc2ccccc2)C(c2cccc(F)c2)NC(=O)N1 (configuration not stated),"inconclusive: 16.4 µM [inhibitor, single point]",
N#CC(C#N)=c1ccc2c(c1)N1C(c3ccccc3)=CC(c3ccccc3)C3CCCCC31N=2 (configuration not stated),"inconclusive: 3.66 µM [inhibitor, partial curve, poor fit]",
C/C(=N\S(=O)(=O)c1ccc(C)cc1)N1CCCCC1,,inactive: 9.18%
CC(=O)c1cccc(OCC(=O)N(Cc2ccco2)c2c(N)n(Cc3ccccc3)c(=O)[nH]c2=O)c1,,inactive: -9.93%
Cc1cc(=O)[nH]c(SCC(=O)Nc2cc(S(=O)(=O)N3CCCC3)ccc2Cl)n1,,inactive: -2.49%
Cc1cccc(NC(=O)c2ccc(C(=O)Nc3cccc(C)c3)nc2)c1,,inactive: 2.08%

# 5 records picked at random from those above:
SMILES,Potency,"activity change, negative = inhibition"
CC(=O)c1cccc(OCC(=O)N(Cc2ccco2)c2c(N)n(Cc3ccccc3)c(=O)[nH]c2=O)c1,,inactive: -9.93%
Cc1cccc(NC(=O)c2ccc(C(=O)Nc3cccc(C)c3)nc2)c1,,inactive: 2.08%
C/C(=N\S(=O)(=O)c1ccc(C)cc1)N1CCCCC1,,inactive: 9.18%
Cc1ccc(S(=O)(=O)CCC(=O)OCC(=O)NCc2ccccc2)cc1,"inconclusive: 29.1 µM [activator, single point]",
COc1ccc(N2CCN(S(=O)(=O)c3ccc4c(c3)CC(C)N4C(=O)C3CC3)CC2)cc1 (configuration not stated),"inconclusive: 5.17 µM [inhibitor, partial curve, poor fit]",

# From PubChem BioAssay AID504467 (National Center for Advancing Translational Sciences (NCATS), 2011)
